Earlier results as cited in patent publication US11993590B2, “Pyranone compounds useful to modulate OMA1 protease” (712 North Inc., priority 2016, dated 2024).
For at least one compound, name, drawing or mass did not settle the structure.

Tested on: OPA1
Settings: cells cultured with the compound; cited from earlier work

CC[C@H](C)[C@H](NC(=O)[C@H]([C@@H](C)CC)N(C)C(C)=O)C(=O)N[C@H](C(=O)N[C@@H](CC(C)C)C(=O)[C@@]1(C)CO1)[C@@H](C)O [epoxomycin]
OPA1 levels and OPA1L/OPA1S isoforms: did not change OPA1 levels or the ratio of OPA1L to OPA1S isoforms
